The source of these data is article PMC3653867.

Results are given in words; binding and its absence hold for the method and conditions named. Binding seen in cells or lysates may run through a third protein. Binding calls can cover weak binding; strength is not graded here.

This experiment concerns the target T1, tetraspanin CD81 (rat (endogenous in fetal rat brain GCPs)) (UniProt Q62745).
T1 sequence: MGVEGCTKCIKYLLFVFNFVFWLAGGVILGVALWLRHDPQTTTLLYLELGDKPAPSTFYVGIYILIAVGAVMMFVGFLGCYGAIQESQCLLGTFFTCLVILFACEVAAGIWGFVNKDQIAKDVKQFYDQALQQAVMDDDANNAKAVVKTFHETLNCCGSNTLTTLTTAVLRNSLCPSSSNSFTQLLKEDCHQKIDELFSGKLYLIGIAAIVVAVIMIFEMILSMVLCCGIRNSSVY
Briefly: co-IP; rat GCP membrane/cytoskeletal pellet solubilised in 2% Brij 98, 5 mM MgCl2, 1 mM CaCl2 in TBS (37°C 20 min, then 4°C 40 min); supernatant incubated overnight at 4°C with antibody-loaded protein G-agarose beads; 3 washes with PBS; Western blot.

Turning to “Amyloid precursor protein (rat (endogenous in fetal rat brain GCPs))”, the binding result is “binds”.
